LdMetRS: 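Primary screen of methionyl-tRNA synthetase; the read-out is not stated. Target: Methionyl-tRNA synthetase (putative), Leishmania donovani (UniProt E9BF75). The test concentration is not given. The values are filed as inhibition. Size under these conditions: about 68,000 compounds, about 24 of them at 50% or above in at least one test.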
Mtb heat-shock: 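Assay on Mycobacterium tuberculosis, filed only as a heat shock assay from Cornell; the read-out is not stated. The concentration is filed as 10 mM, unlikely as a test dose, so the dose is not known. Direction is inferred from retests: higher values go with stronger inhibition. Of about 69,000 compounds tested this way, about 930 (1.4%) reached 50% or more in at least one test.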

By UniProt entry, the sequences of proteins in these tests, tags left out.
UniProt E9BF75, entry or part of it: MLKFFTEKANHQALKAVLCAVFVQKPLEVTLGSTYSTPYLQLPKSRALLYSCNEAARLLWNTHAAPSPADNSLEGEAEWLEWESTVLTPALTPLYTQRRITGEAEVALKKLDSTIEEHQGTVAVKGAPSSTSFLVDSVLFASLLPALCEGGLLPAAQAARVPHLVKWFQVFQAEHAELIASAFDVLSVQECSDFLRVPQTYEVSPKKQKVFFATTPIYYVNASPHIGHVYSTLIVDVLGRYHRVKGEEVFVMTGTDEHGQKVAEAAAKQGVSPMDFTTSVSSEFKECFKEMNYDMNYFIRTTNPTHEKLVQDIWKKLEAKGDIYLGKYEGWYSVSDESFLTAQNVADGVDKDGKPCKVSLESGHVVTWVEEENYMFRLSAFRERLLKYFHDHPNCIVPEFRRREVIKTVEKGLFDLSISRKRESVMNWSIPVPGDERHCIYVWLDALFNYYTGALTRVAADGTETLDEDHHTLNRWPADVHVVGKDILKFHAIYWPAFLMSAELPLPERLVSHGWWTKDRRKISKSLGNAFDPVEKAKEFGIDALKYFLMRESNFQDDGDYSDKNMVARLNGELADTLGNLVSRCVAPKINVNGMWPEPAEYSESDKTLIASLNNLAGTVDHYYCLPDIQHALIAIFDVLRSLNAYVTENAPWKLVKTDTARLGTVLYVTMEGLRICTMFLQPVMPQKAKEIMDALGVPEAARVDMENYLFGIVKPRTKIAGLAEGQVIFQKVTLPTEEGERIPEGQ

Results are percentages, as filed.
The record does not define 0% and 100%; most values in the screen are far below 50% and negative numbers occur (in some assays of this library far below -100).
Compounds were drawn at random from those tested, without regard to their results.
A dash means the value is not listed here; it may have been measured.

| SMILES | LdMetRS | Mtb heat-shock |
|---|---|---|
| `CN1CCCN(Cc2nc(Cc3ccccc3)n[nH]2)CC1` | 14.03 | -13.61 |
| `Cc1nc(-c2cncnc2C2CCCNC2)no1.Cl.Cl` (stereo unspecified) | - | -15.54 |
| `Cc1cc(CN2CCC(CNC(=O)c3noc4c3CCCC4)C2)[nH]n1` (stereo unspecified) | 11.34 | -4.465 |
| `Cc1cccc(N2CC3(CCN(c4nncs4)C3)CC2=O)c1` (stereo unspecified) | 15.74 | -40.27 |
| `CC(=O)NCC1CCC2(CCN(c3ncc(C(C)=O)c(C)n3)CC2)O1` (stereo unspecified) | 20 | -35.1 |
| `CCc1cc(-c2cc[nH]n2)nc(N2CCOCC2)n1` | 11.67 | -10.48 |
| `COc1cc2[nH]c(=O)c(CN3CCCC3C)cc2c(OC)c1OC` (stereo unspecified) | 13.23 | 20.38 |
| `CS(=O)(=O)N1CCCC12CCCN(S(=O)(=O)c1ccc(F)cc1)C2` (stereo unspecified) | 7.807 | -0.75 |
| `CC[C@@H](Cn1ncc2ccccc2c1=O)NC(=O)c1ccco1` | 5.851 | -3.559 |
| `CC(C)Cn1ncc(C(=O)NS(=O)(=O)C2CCCC2)c1C1CC1` | 9.804 | 9.744 |
| `CCC(c1ccc(F)cc1)N1CCn2c(CO)nnc2C1` (stereo unspecified) | 17.62 | -5.115 |
| `CC(C)c1cc(N2CCC3(CC2)CN(C)CCN3C)ncn1` | 16.11 | 2.666 |
| `COCCNS(=O)(=O)c1cccc2c1CN(C(=O)c1ccccc1)CC2` | 2.655 | -0.08173 |
| `CSc1ccc(CN(CCO)Cc2nccn2C)cc1` | 14.52 | -17.8 |
| `CSc1ccc(-c2cc(CN)nc3ccnn23)cc1.Cl` | - | 4.059 |
| `CN(C(=O)Cc1ccn(C)c1)C1CCCN(C2Cc3ccccc3C2)C1` (stereo unspecified) | 15.38 | 0.1777 |
| `c1coc(CN2C[C@@H]3OCCN(CCN4CCCC4)[C@@H]3C2)c1` | 6.283 | - |
| `CCS(=O)(=O)N1CCC(c2nc3ccc(-c4ccccc4)cn3n2)CC1` | 6.5 | -22.18 |
| `CC(C)(C)CC(=O)Nc1ccccc1SCC(N)=O` | 14.11 | -1.618 |
| `Cc1ncccc1CNCC1CCN(CC(O)c2ccccc2)CC1` (stereo unspecified) | 12.5 | -12.29 |
| `CCCN(C)c1ccc(C(=O)Nc2c(C)nn(C(C)C)c2C)cc1` | 6.383 | 4.656 |
| `CCO[C@@H]1CCN(C(=O)c2ccnnc2)[C@@H]1Cc1cnn(C)c1` | 12.09 | -7.271 |
| `COCCN1CC2(CCCN(Cc3cc(=O)c(OC)co3)C2)CCC1=O` (stereo unspecified) | 14.63 | 3.004 |
| `Cc1[nH]nc(-c2ccc(F)cc2)c1CC(=O)NCC1CCOCC1` | 17.16 | 3.45 |
| `Cc1ccc(NS(=O)(=O)c2ccc(C#N)cc2)c(CN(C)C)c1` | 2.978 | 2.743 |
| `O=C(O)C(F)(F)F.O=C(O)C(F)(F)F.[H][C@]12CO[C@H](CNC(=O)c3cccnc3)[C@@]1([H])CCN(Cc1ccco1)C2` | - | -10.25 |
| `CC(=O)NS(=O)(=O)c1ccc(F)cc1C(F)(F)F` | 5.744 | -5.954 |
| `CCCn1nc2c(cc1=O)CN(Cc1cc(C)on1)CC2` | 20 | 12.94 |
| `Cc1cncc(C2CCCN(C(=O)c3ccc(C)[nH]c3=O)C2)n1` (stereo unspecified) | 10.14 | -13.26 |
| `Cc1ccccc1-n1ncc(C(=O)N2CCCC2c2cnn(C)c2)c1C` (stereo unspecified) | -4.762 | 3.477 |
| `O=C(NCCCO)Nc1cnc2cc(Cl)ccc2c1O` | 17.71 | -8.847 |
| `O=C(O)C(F)(F)F.[H][C@@]12C[C@H](C(=O)N3CCCCO3)CN(Cc3ccc(F)cc3)[C@]1([H])CCO2` | - | -17.55 |
| `Cc1ccc2c(c1)N(C(=O)c1nccnc1N)CC(C)O2` (stereo unspecified) | 14.29 | 3.055 |
| `O=C(Nc1ccc(-n2cncn2)c(F)c1)C1CCN(C(=O)C2CC2)CC1` | 7.971 | 18.25 |
| `O=C(O)C(F)(F)F.O=C(O)C(F)(F)F.[H][C@@]12CCN(Cc3ccsc3)C[C@@]1([H])O[C@@H](C(=O)Nc1cccnc1C)C2` | - | -19.08 |
| `CN1CCN(Cc2ccsc2)Cc2cccnc21` | 13.33 | -2.759 |
| `CCc1ccc(OCC(O)CN2CCC(O)CC2)cc1` (stereo unspecified) | -0.6944 | -7.229 |
| `Cc1nsc(NCc2ccc(CS(=O)(=O)NC(C)C)cc2)n1` | 24.3 | 11.04 |
| `O=C(NCC(F)(F)F)c1nnn(-c2ccccc2)c1C(F)(F)F` | 12.24 | -12.55 |
| `Clc1cc(NCc2ncc[nH]2)nc2[nH]ccc12` | 18.58 | -5.412 |
| `Cc1cnccc1-c1cnn(CCNC(=O)c2ccccn2)c1C1CC1` | 10.76 | - |
| `CSc1nccc(N2CCC3(CCCN(CCc4ccccc4)C3)C2)n1` (stereo unspecified) | 23.25 | 12.42 |
| `COCCN1CCCc2sc(C(=O)N3CCCN(C)CC3)nc21` | -7.266 | - |
| `COc1cccc(CNC(C)C)c1OCc1ccc(C)cc1` | 4.092 | - |
| `COc1ccccc1N1CCC(CNS(=O)(=O)c2cccs2)C1` (stereo unspecified) | 19.16 | -5.303 |
| `O=S(=O)(C1CC1)N1CCO[C@@H]2CN(Cc3cccs3)C[C@@H]2C1` | 13.77 | - |
| `CCN1CCCC1CNC(=O)Cc1c(C)n[nH]c1-c1ccc(OC)cc1` (stereo unspecified) | 12.87 | -24.77 |
| `Cn1cc(CN2CCC3(C2)CN(Cc2ccsc2)C3)cn1` | 11.81 | - |
| `CCC1(CO)CCN(C(=O)c2cc(COc3ccccc3F)[nH]n2)CC1` | 10.03 | -8.872 |
| `CCc1c(C)nc(C)nc1N1C[C@@H](CN(C)CCN(C)C)[C@@H](CO)C1` | 1.117 | 1.227 |
| `COc1c(C2CCCN2CC(=O)Nc2cc(C)on2)c(C)nn1C` (stereo unspecified) | 11.17 | -14.41 |
| `COCCNc1c(C#N)c2c(c3nncn13)CN(C)CC2` | 16.91 | 7.335 |
| `CC(=O)N1CCN(Cc2ccco2)CC2(CC(=O)N(C)C2)C1` (stereo unspecified) | -2.885 | - |
| `CC1=C(C#N)C(=O)NC(=O)/C1=C\c1c(C)nn(-c2ccccc2)c1O` | 9.459 | -16.99 |
| `Cc1cccc(C(=O)N2CCCC2c2c(C)n[nH]c2C)c1` (stereo unspecified) | 1.742 | -9.306 |
| `CC(C)(C)C(=O)NCCNc1cc(N2CCCC2)ncn1` | 6.812 | 6.992 |
| `COCCN(Cc1ccncc1)C(=O)C1COc2ccccc2C1` (stereo unspecified) | 24.55 | -0.462 |
| `COCCNC(=O)c1cnc(C)nc1C` | -4.532 | -187.9 |
| `[H][C@@]12COC[C@]1(COc1ccc(C#N)cn1)CN(Cc1cnn(C)c1)C2` | - | -41.48 |
| `Cc1nc(CN2C[C@@H]3CN(C(=O)CC(F)(F)F)C[C@@H]3C2=O)cs1` | 11.75 | - |
| `CCc1cnc(CN(C)C2CCN(CCc3ccccn3)C2)o1` (stereo unspecified) | 9.735 | 105.9 |
| `CC(C)c1ccc(S(=O)(=O)NC2(CC(N)=O)CCC2)cc1` | 15.97 | -1.675 |
| `[H][C@]12CCN(C(=O)Cc3cccc(OC)c3)[C@@]1([H])CCC(=O)N2` | - | -25.39 |
| `COCCn1cnnc1C(C)NC(=O)c1[nH]c2c(C)cc(C)cc2c1C` (stereo unspecified) | -3.817 | -27.11 |
| `N#Cc1cc(F)c(NCc2ccc(F)cc2)c(F)c1` | -1.795 | -4.355 |

Once more, the final 4:

For CC(C)c1ccc(S(=O)(=O)NC2(CC(N)=O)CCC2)cc1 the result was LdMetRS: 15.97%; Mtb heat-shock: -1.675%.
For [H][C@]12CCN(C(=O)Cc3cccc(OC)c3)[C@@]1([H])CCC(=O)N2 the result was Mtb heat-shock: -25.39%.
For COCCn1cnnc1C(C)NC(=O)c1[nH]c2c(C)cc(C)cc2c1C (stereo unspecified) the result was LdMetRS: -3.817%; Mtb heat-shock: -27.11%.
For N#Cc1cc(F)c(NCc2ccc(F)cc2)c(F)c1 the result was LdMetRS: -1.795%; Mtb heat-shock: -4.355%.

Source: ChEMBL document CHEMBL3988442, “University of Dundee, Small-Polar-MMV Screening Library” (2021).